{"source": "patent US10662182B2", "about": "“Microbiocidal thiazole derivatives” (SYNGENTA PARTICIPATIONS AG, priority 2016, dated 2020)", "key": {"Gaeumannomyces graminis": {"system": "Gaeumannomyces graminis", "test": "Gaeumannomyces graminis / liquid culture (take-all of cereals)", "type": "cell-based", "details": "200 ppm in the formulation, inhibition of growth determined photometrically, compared to untreated control", "protocol": "(§1) Gaeumannomyces graminis/Liquid Culture (Take-All of Cereals) Mycelial fragments of the fungus from cryogenic storage were directly mixed into nutrient broth (PDB potato dextrose broth). After placing a (DMSO) solution of test compound into a microtiter plate (96-well format), the nutrient broth containing the fungal spores is added. The test plates are incubated at 24° C. and the inhibition of growth is determined photometrically 4-5 days after application."}, "Alternaria solani": {"system": "Alternaria solani", "test": "Alternaria solani / tomato / leaf disc (early blight)", "type": "in vivo", "details": "200 ppm in the formulation; tomato leaf disks cv. Baby; compared to untreated checks"}, "[1]": {"system": "Blumeria graminis f. Sp. Tritici (Erysiphe graminis f. Sp. Tritici)", "test": "Blumeria graminis f. sp. tritici / wheat / leaf disc preventative (powdery mildew on wheat)", "type": "in vivo", "details": "200 ppm in the formulation; wheat leaf segments cv. Kanzler; compared to untreated checks", "description": "Blumeria graminis f. Sp. Tritici (Erysiphe graminis f. Sp. Tritici)/Wheat/Leaf Disc Preventative (Powdery Mildew on Wheat) Wheat leaf segments cv. Kanzler are placed on agar in a multiwell plate (24-well format) and sprayed with the test compound formulated with DMSO and Tween20 and diluted in water. The leaf disks are inoculated by shaking powdery mildew infected plants above the test plates 1 day after application."}, "[2]": {"system": "Monocraphella nivalis (Microdochium nivale)", "test": "Monographella nivalis / liquid culture (foot rot cereals)", "type": "cell-based", "details": "200 ppm in the formulation, inhibition of growth determined photometrically, compared to untreated checks", "protocol": "as §1, with “Monocraphella nivalis (Microdochium nivale)/Liquid” for “Gaeumannomyces graminis/Liquid”, “(Foot Rot” for “(Take-All of”, “Conidia” for “Mycelial fragments”, “are” for “were”"}, "[3]": {"system": "Mycosphaerella raminicola (Septoria tritici)", "test": "Mycosphaerella graminicola / liquid culture (Septoria blotch)", "type": "cell-based", "details": "200 ppm in the formulation, inhibition of growth determined photometrically, compared to untreated checks", "protocol": "as §1, with “Mycosphaerella raminicola (Septoria tritici)/Liquid” for “Gaeumannomyces graminis/Liquid”, “(Septoria blotch) Conidia” for “(Take-All of Cereals) Mycelial fragments”, “are” for “were”, “4 to 5” for “4-5”"}, "[4]": {"system": "Puccinia recondita f. Sp. Tritici", "test": "Puccinia recondita f. sp. tritici / wheat / leaf disc preventative (brown rust)", "type": "in vivo", "details": "200 ppm in the formulation; wheat leaf segments cv. Kanzler; compared to untreated checks"}, "[5]": {"system": "Glomerella lacenarium (Colletotrichum lacenarium)", "test": "Glomerella lagenarium / liquid culture (anthracnose)", "type": "cell-based", "details": "200 ppm in the formulation, inhibition of growth measured photometrically, compared to untreated checks", "protocol": "as §1, with “Glomerella lacenarium (Colletotrichum lacenarium)/Liquid” for “Gaeumannomyces graminis/Liquid”, “(Anthracnose) Conidia” for “(Take-All of Cereals) Mycelial fragments”, “are” for “were”, “measured” for “determined”, “3 to 4” for “4-5”"}}, "note": "Some results were stated once for a whole list of compounds, not compound by compound.", "data": [{"smiles": "Cc1sc(Nc2cc(F)cc(F)c2)nc1C(=O)Nc1ccc(Oc2ccc(Cl)cc2)cc1", "note": "[I.an.3]", "values": [{"measurement": "disease control", "setting": "Gaeumannomyces graminis", "result": "at least 80%"}]}, {"smiles": "Cc1sc(Nc2cc(F)cc(F)c2)nc1C(=O)NC1C2CCCC2C1(C)C", "note": "(stereo not drawn) [I.y.3, 2-(3,5-difluoroanilino)-N-(6,6-dimethyl-7-bicyclo[3.2.0]heptanyl)-5-methyl-thiazole-4-carboxamide]", "values": [{"measurement": "disease control", "setting": "Alternaria solani", "result": "at least 80%"}]}, {"smiles": "Cc1sc(Nc2cc(F)cc(F)c2)nc1C(=O)NCC1(C)CCOCC1", "note": "[I.ar.3]", "values": [{"measurement": "disease control", "setting": "[1]", "result": "at least 80%"}]}, {"smiles": "Cc1sc(Nc2cc(F)cc(F)c2)nc1C(=O)NC1COC1c1ccc(Cl)cc1Cl", "note": "(stereo not drawn) [I.ai.3]", "values": [{"measurement": "disease control", "setting": "[2]", "result": "at least 80%"}, {"measurement": "disease control", "setting": "Gaeumannomyces graminis", "result": "at least 80%"}]}, {"smiles": "Cc1sc(Nc2cc(F)nc(F)c2)nc1C(=O)NCC1(C)CCCC1", "note": "[I.aq.43]", "values": [{"measurement": "disease control", "setting": "[1]", "result": "at least 80%"}, {"measurement": "disease control", "setting": "[3]", "result": "at least 80%"}, {"measurement": "disease control", "setting": "[4]", "result": "at least 80%"}, {"measurement": "disease control", "setting": "[5]", "result": "at least 80%"}]}, {"smiles": "COCC(C)(C)CNC(=O)c1nc(Nc2cc(F)nc(F)c2)sc1C", "note": "[I.as.43]", "values": [{"measurement": "disease control", "setting": "[1]", "result": "at least 80%"}, {"measurement": "disease control", "setting": "[3]", "result": "at least 80%"}, {"measurement": "disease control", "setting": "[4]", "result": "at least 80%"}]}, {"smiles": "COCC1(CNC(=O)c2nc(Nc3cc(F)cc(F)c3)sc2C)CCCC1", "note": "[I.bf.3]", "values": [{"measurement": "disease control", "setting": "[2]", "result": "at least 80%"}, {"measurement": "disease control", "setting": "[4]", "result": "at least 80%"}, {"measurement": "disease control", "setting": "[5]", "result": "at least 80%"}]}, {"smiles": "Cc1sc(Nc2cc(F)cc(F)c2)nc1C(=O)NC(CO)C(C)(C)C", "note": "(stereo not drawn) [I.j.3]", "values": [{"measurement": "disease control", "setting": "Gaeumannomyces graminis", "result": "at least 80%"}]}, {"smiles": "Cc1sc(Nc2cc(F)cc(F)c2)nc1C(=O)NC(C(C)C)C(F)(F)F", "note": "(stereo not drawn) [I.i.3]", "values": [{"measurement": "disease control", "setting": "[2]", "result": "at least 80%"}, {"measurement": "disease control", "setting": "[1]", "result": "at least 80%"}, {"measurement": "disease control", "setting": "Gaeumannomyces graminis", "result": "at least 80%"}, {"measurement": "disease control", "setting": "[4]", "result": "at least 80%"}, {"measurement": "disease control", "setting": "[5]", "result": "at least 80%"}]}, {"smiles": "Cc1sc(Nc2cc(F)cc(F)c2)nc1C(=O)NC(C)(Cc1ccccc1)CC(C)C", "note": "(stereo not drawn) [I.o.3]", "values": [{"measurement": "disease control", "setting": "Gaeumannomyces graminis", "result": "at least 80%"}]}, {"smiles": "Cc1sc(Nc2cc(F)cc(F)c2)nc1C(=O)Nc1ccc(OC2CCCCCCC2)cc1F", "note": "[I.am.3]", "values": [{"measurement": "disease control", "setting": "Gaeumannomyces graminis", "result": "at least 80%"}]}, {"smiles": "Cc1sc(Nc2cc(F)nc(F)c2)nc1C(=O)NC1CC12CC2", "note": "(stereo not drawn) [I.bb.43, 2-[(2,6-difluoro-4-pyridyl)amino]-5-methyl-N-spiro[2.2]pentan-2-yl-thiazole-4-carboxamide]", "values": [{"measurement": "disease control", "setting": "Alternaria solani", "result": "at least 80%"}]}, {"smiles": "Cc1sc(Nc2cc(F)cc(F)c2)nc1C(=O)Nc1ccc(OC2CCC(C)(C)CC2)cc1F", "note": "[I.ak.3]", "values": [{"measurement": "disease control", "setting": "[3]", "result": "at least 80%"}, {"measurement": "disease control", "setting": "Gaeumannomyces graminis", "result": "at least 80%"}]}, {"smiles": "Cc1sc(Nc2cc(F)cc(F)c2)nc1C(=O)NC1CCC12CCCC2", "note": "(stereo not drawn) [I.s.3, 2-(3,5-difluoroanilino)-5-methyl-N-spiro[3.4]octan-3-yl-thiazole-4-carboxamide]", "values": [{"measurement": "disease control", "setting": "Alternaria solani", "result": "at least 80%"}]}, {"smiles": "Cc1sc(Nc2cc(F)cc(F)c2)nc1C(=O)NCc1cc(F)c(F)cc1Br", "note": "[I.d.3]", "values": [{"measurement": "disease control", "setting": "[2]", "result": "at least 80%"}, {"measurement": "disease control", "setting": "Gaeumannomyces graminis", "result": "at least 80%"}]}, {"smiles": "Cc1sc(Nc2cc(F)cc(F)c2)nc1C(=O)NC1(Cc2ccccc2)CC(C)OC(C)C1", "note": "(stereo not drawn) [I.aj.3]", "values": [{"measurement": "disease control", "setting": "[2]", "result": "at least 80%"}, {"measurement": "disease control", "setting": "Gaeumannomyces graminis", "result": "at least 80%"}]}, {"smiles": "Cc1sc(Nc2cc(F)nc(F)c2)nc1C(=O)NC(C)C1CCCCC1", "note": "(stereo not drawn) [I.e.43]", "values": [{"measurement": "disease control", "setting": "[2]", "result": "at least 80%"}, {"measurement": "disease control", "setting": "[1]", "result": "at least 80%"}, {"measurement": "disease control", "setting": "[3]", "result": "at least 80%"}, {"measurement": "disease control", "setting": "[4]", "result": "at least 80%"}, {"measurement": "disease control", "setting": "[5]", "result": "at least 80%"}]}, {"smiles": "CC(=O)OCC1CC(NC(=O)c2nc(Nc3cc(F)cc(F)c3)sc2C)C12CCCO2", "note": "(stereo not drawn) [I.u.3]", "values": [{"measurement": "disease control", "setting": "[2]", "result": "at least 80%"}, {"measurement": "disease control", "setting": "[3]", "result": "at least 80%"}, {"measurement": "disease control", "setting": "Gaeumannomyces graminis", "result": "at least 80%"}, {"measurement": "disease control", "setting": "[5]", "result": "at least 80%"}]}, {"smiles": "Cc1sc(Nc2cc(F)cc(F)c2)nc1C(=O)NCc1cc(F)c(F)cc1Cl", "note": "[I.c.3]", "values": [{"measurement": "disease control", "setting": "[2]", "result": "at least 80%"}, {"measurement": "disease control", "setting": "[3]", "result": "at least 80%"}, {"measurement": "disease control", "setting": "Gaeumannomyces graminis", "result": "at least 80%"}, {"measurement": "disease control", "setting": "[4]", "result": "at least 80%"}, {"measurement": "disease control", "setting": "[5]", "result": "at least 80%"}]}, {"smiles": "Cc1sc(Nc2cc(F)cc(F)c2)nc1C(=O)NC(C)c1cc(-c2ccccc2)no1", "note": "(stereo not drawn) [I.g.3]", "values": [{"measurement": "disease control", "setting": "[2]", "result": "at least 80%"}, {"measurement": "disease control", "setting": "Gaeumannomyces graminis", "result": "at least 80%"}]}, {"smiles": "Cc1sc(Nc2cc(F)cc(F)c2)nc1C(=O)NC1(Cc2ccccc2)CCCCC1", "note": "[I.af.3]", "values": [{"measurement": "disease control", "setting": "Gaeumannomyces graminis", "result": "at least 80%"}]}]}
